# Source: PubChem BioAssay AID1259405 (NCATS, 2018)
# Aim: 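Silenced genes that increase secreted GFP made by CHO cells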 (primary screen)
# Cell system: Chinese hamster CHO-K1 ovary cells with stable secreted eGFP expression
# Reagents: single siRNA against mouse genes, 0.8 pmol siRNA per well (2 µl of 400 nM stock)
# Duration: 3 days
# Detection: 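Per-well intracellular GFP measured by laser scanning cytometry, plus viability from ATP luminescence, each relative to plate median of non-targeting control wells, in %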
# Direction: GFP, % of control: higher = more GFP per well, higher productivity; viability (ATP), % of control: higher = more viable cells (more ATP)
# Hit rule: 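a knock-down is called active if GFP reaches 120% or more of non-targeting control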
# The deposit covers about 50,000 reagents; shown is an unselected part. In the full data, about 4,000 (8%) got an active call. 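Mouse siRNA library applied to hamster cells; one well for each siRNA.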
target,PubChem SID,"GFP, % of control","viability (ATP), % of control",Call
"Serpinb9 (serine (or cysteine) peptidase inhibitor, clade B, member 9)",SID363573091,73.4,88.7,inactive
"Serpinb9 (serine (or cysteine) peptidase inhibitor, clade B, member 9)",SID363577667,49.4,69.4,inactive
"Serpinb9 (serine (or cysteine) peptidase inhibitor, clade B, member 9)",SID363581187,73.4,93.9,inactive
"Tarm1 (T cell-interacting, activating receptor on myeloid cells 1)",SID363544099,77.5,45.9,inactive
"Tarm1 (T cell-interacting, activating receptor on myeloid cells 1)",SID363550427,74.8,89.6,inactive
"Tarm1 (T cell-interacting, activating receptor on myeloid cells 1)",SID363556976,49.8,56.9,inactive
"Arpp21 (cyclic AMP-regulated phosphoprotein, 21)",SID363540598,93.8,85.5,inactive
"Arpp21 (cyclic AMP-regulated phosphoprotein, 21)",SID363543049,98.4,71.8,inactive
"Arpp21 (cyclic AMP-regulated phosphoprotein, 21)",SID363552542,146,108,active
Gpr85 (G protein-coupled receptor 85),SID363571305,47.1,44.8,inactive
Gpr85 (G protein-coupled receptor 85),SID363571657,65.2,73.6,inactive
Gpr85 (G protein-coupled receptor 85),SID363572009,80.7,72.1,inactive
Erc1 (ELKS/RAB6-interacting/CAST family member 1),SID363545430,106,66.8,inactive
Erc1 (ELKS/RAB6-interacting/CAST family member 1),SID363548943,78.9,81,inactive
Erc1 (ELKS/RAB6-interacting/CAST family member 1),SID363562749,59.2,53.7,inactive
Wnk4 (WNK lysine deficient protein kinase 4),SID363571030,61.3,72.1,inactive
Gsg1 (germ cell associated 1),SID363540157,96.9,90.7,inactive
Gsg1 (germ cell associated 1),SID363561458,121,98.7,active
Gsg1 (germ cell associated 1),SID363564494,81.2,75.7,inactive
Hspa8 (heat shock protein family A (Hsp70) member 8),SID363553716,52.8,16.4,inactive
Hspa8 (heat shock protein family A (Hsp70) member 8),SID363561673,40.2,11.7,inactive
Hspa8 (heat shock protein family A (Hsp70) member 8),SID363565411,51.4,21.1,inactive
Soat1 (sterol O-acyltransferase 1),SID363570493,79,68.5,inactive
Soat1 (sterol O-acyltransferase 1),SID363579293,89.9,81.6,inactive
Soat1 (sterol O-acyltransferase 1),SID363583165,89.5,111,inactive
Fdft1 (farnesyl diphosphate farnesyl transferase 1),SID363570637,118,76.4,inactive
Fdft1 (farnesyl diphosphate farnesyl transferase 1),SID363579437,136,164,active
Fdft1 (farnesyl diphosphate farnesyl transferase 1),SID363583309,96,89.3,inactive
"Cacnb2 (calcium channel, voltage-dependent, beta 2 subunit)",SID363547287,55.7,68.4,inactive
"Cacnb2 (calcium channel, voltage-dependent, beta 2 subunit)",SID363558056,42.3,50,inactive
"Cacnb2 (calcium channel, voltage-dependent, beta 2 subunit)",SID363559814,82.8,95.5,inactive
Fscn1 (fascin actin-bundling protein 1),SID363541212,73.7,69.7,inactive
Fscn1 (fascin actin-bundling protein 1),SID363555839,82.1,73.9,inactive
Fscn1 (fascin actin-bundling protein 1),SID363566128,61,83.1,inactive
Cd34 (CD34 antigen),SID363555179,49.4,59.3,inactive
Cd34 (CD34 antigen),SID363563840,33.5,49.5,inactive
Cd34 (CD34 antigen),SID363587386,99.1,96.6,inactive
Btf3 (basic transcription factor 3),SID363555306,67.9,39.3,inactive
Btf3 (basic transcription factor 3),SID363563967,64.5,53.8,inactive
Btf3 (basic transcription factor 3),SID363587513,102,112,inactive
Cst3 (cystatin C),SID363572963,73.2,63.5,inactive
Cst3 (cystatin C),SID363577539,71.2,82.7,inactive
Cst3 (cystatin C),SID363581059,172,71.9,active
Cst3 (cystatin C),SID363589719,97.8,87,inactive
Cst3 (cystatin C),SID363589720,106,85.9,inactive
Cst3 (cystatin C),SID363589721,144,75.5,active
Pdcd6 (programmed cell death 6),SID363582379,63.4,73,inactive
Pdcd6 (programmed cell death 6),SID363584139,35.1,40.9,inactive
Myot (myotilin),SID363572387,89.5,107,inactive
Myot (myotilin),SID363574147,64.1,66.3,inactive
Gal3st1 (galactose-3-O-sulfotransferase 1),SID363581855,55.7,90.3,inactive
Gal3st1 (galactose-3-O-sulfotransferase 1),SID363589349,105,76.4,inactive
Frat1 (frequently rearranged in advanced T cell lymphomas),SID363539891,67.6,76.4,inactive
Frat1 (frequently rearranged in advanced T cell lymphomas),SID363561192,90.4,82.7,inactive
Frat1 (frequently rearranged in advanced T cell lymphomas),SID363564228,84.9,87.5,inactive
Dguok (deoxyguanosine kinase),SID363570938,61.8,70.3,inactive
Top3b (topoisomerase (DNA) III beta),SID363569168,101,99.4,inactive
Top3b (topoisomerase (DNA) III beta),SID363583600,74.2,90.7,inactive
Ash2l (ASH2 like histone lysine methyltransferase complex subunit),SID363573507,69.3,65.7,inactive
Ash2l (ASH2 like histone lysine methyltransferase complex subunit),SID363588746,78.1,69.5,inactive
Abhd14a (abhydrolase domain containing 14A),SID363545643,98.5,103,inactive
Abhd14a (abhydrolase domain containing 14A),SID363549156,74.9,81.1,inactive
Abhd14a (abhydrolase domain containing 14A),SID363562962,32.4,43,inactive
Ccnl2 (cyclin L2),SID363547434,155,127,active
Ccnl2 (cyclin L2),SID363558203,68.3,52.1,inactive
Ccnl2 (cyclin L2),SID363559961,97.6,111,inactive
Wfikkn2,SID363572970,120,98.1,inactive
Wfikkn2,SID363577546,85.5,64.2,inactive
Wfikkn2,SID363581066,96.7,69,inactive
Sh3bp4 (SH3-domain binding protein 4),SID363545013,48,61.8,inactive
Sh3bp4 (SH3-domain binding protein 4),SID363551341,87,94.5,inactive
Sh3bp4 (SH3-domain binding protein 4),SID363557890,50.4,72.3,inactive
Ccdc178 (coiled coil domain containing 178),SID363542574,124,73.3,active
Ccdc178 (coiled coil domain containing 178),SID363552065,32.5,31.9,inactive
Ccdc178 (coiled coil domain containing 178),SID363559670,99.4,116,inactive
Gucy2c (guanylate cyclase 2c),SID363572882,56.5,84.3,inactive
Gucy2c (guanylate cyclase 2c),SID363577458,91,90.5,inactive
Gucy2c (guanylate cyclase 2c),SID363580978,94.2,72.3,inactive
Stk17b (serine/threonine kinase 17b (apoptosis-inducing)),SID363570884,112,92.3,inactive
Trim11 (tripartite motif-containing 11),SID363572484,81.1,69.2,inactive
Trim11 (tripartite motif-containing 11),SID363577764,111,73.5,inactive
Trim11 (tripartite motif-containing 11),SID363581988,69.7,78.3,inactive
Cpsf1 (cleavage and polyadenylation specific factor 1),SID363569462,122,95.1,active
Cpsf1 (cleavage and polyadenylation specific factor 1),SID363577206,30.3,19.5,inactive
Cpsf1 (cleavage and polyadenylation specific factor 1),SID363578614,62.8,81.8,inactive

Targets above whose gene name begins with W or w:
target,PubChem SID,"GFP, % of control","viability (ATP), % of control",Call
Wnk4 (WNK lysine deficient protein kinase 4),SID363571030,61.3,72.1,inactive
Wfikkn2,SID363572970,120,98.1,inactive
Wfikkn2,SID363577546,85.5,64.2,inactive
Wfikkn2,SID363581066,96.7,69,inactive
